Further values from the same series stand in other lists.
What was measured:
Format in all cases: cell-based
Settings in all cases: U-87MG ATCC
[1] = Inhibition of RTK/PI3K/AKT/mTOR signaling in human U87 cells assessed as down regulation of EIF2B2 gene expression at cytotoxic IC50 measured after 48 hrs relative to control
[2] = Inhibition of RTK/PI3K/AKT/mTOR signaling in human U87 cells assessed as up regulation of chromosome 11 open reading frame 54 gene expression at cytotoxic IC50 measured after 48 hrs relative to control
[3] = Inhibition of RTK/PI3K/AKT/mTOR signaling in human U87 cells assessed as down regulation of CCNL1 gene expression at cytotoxic IC50 measured after 48 hrs relative to control
[4] = Inhibition of RTK/PI3K/AKT/mTOR signaling in human U87 cells assessed as down regulation of HES1 gene expression at cytotoxic IC50 measured after 48 hrs relative to control
[5] = Inhibition of RTK/PI3K/AKT/mTOR signaling in human U87 cells assessed as up regulation of roundabout guidance receptor 3 gene expression at cytotoxic IC50 measured after 48 hrs relative to control
[6] = Inhibition of RTK/PI3K/AKT/mTOR signaling in human U87 cells assessed as up regulation of family with sequence similarity 168 member A gene expression at cytotoxic IC50 measured after 48 hrs relative to control
[7] = Inhibition of RTK/PI3K/AKT/mTOR signaling in human U87 cells assessed as up regulation of AU RNA binding methylglutaconyl-CoA hydratase gene expression at cytotoxic IC50 measured after 48 hrs relative to control
[8] = Inhibition of RTK/PI3K/AKT/mTOR signaling in human U87 cells assessed as up regulation of lysophosphatidylcholine acyltransferase 2 gene expression at cytotoxic IC50 measured after 48 hrs relative to control
[9] = Inhibition of RTK/PI3K/AKT/mTOR signaling in human U87 cells assessed as up regulation of AKAP12 gene expression at cytotoxic IC50 measured after 48 hrs relative to control
[10] = Inhibition of RTK/PI3K/AKT/mTOR signaling in human U87 cells assessed as down regulation of VPS37A gene expression at cytotoxic IC50 measured after 48 hrs relative to control
[11] = Inhibition of RTK/PI3K/AKT/mTOR signaling in human U87 cells assessed as up regulation of mal, T-cell differentiation protein 2 (gene/pseudogene) gene expression at cytotoxic IC50 measured after 48 hrs relative to control
[12] = Inhibition of RTK/PI3K/AKT/mTOR signaling in human U87 cells assessed as up regulation of PAN2 poly(A) specific ribonuclease subunit gene expression at cytotoxic IC50 measured after 48 hrs relative to control
[13] = Inhibition of RTK/PI3K/AKT/mTOR signaling in human U87 cells assessed as down regulation of ZNF641 gene expression at cytotoxic IC50 measured after 48 hrs relative to control
[14] = Inhibition of RTK/PI3K/AKT/mTOR signaling in human U87 cells assessed as down regulation of DPY19L2P2 gene expression at cytotoxic IC50 measured after 48 hrs relative to control
[15] = Inhibition of RTK/PI3K/AKT/mTOR signaling in human U87 cells assessed as down regulation of ZNF100 gene expression at cytotoxic IC50 measured after 48 hrs relative to control
[16] = Inhibition of RTK/PI3K/AKT/mTOR signaling in human U87 cells assessed as down regulation of COPS9 gene expression at cytotoxic IC50 measured after 48 hrs relative to control
[17] = Inhibition of RTK/PI3K/AKT/mTOR signaling in human U87 cells assessed as down regulation of GTF3C3 gene expression at cytotoxic IC50 measured after 48 hrs relative to control
[18] = Inhibition of RTK/PI3K/AKT/mTOR signaling in human U87 cells assessed as down regulation of PCDH19 gene expression at cytotoxic IC50 measured after 48 hrs relative to control
[19] = Inhibition of RTK/PI3K/AKT/mTOR signaling in human U87 cells assessed as up regulation of EIF3D gene expression at cytotoxic IC50 measured after 48 hrs relative to control
[20] = Inhibition of RTK/PI3K/AKT/mTOR signaling in human U87 cells assessed as down regulation of CNP gene expression at cytotoxic IC50 measured after 48 hrs relative to control
[21] = Inhibition of RTK/PI3K/AKT/mTOR signaling in human U87 cells assessed as up regulation of mucin 3A, cell surface associated gene expression at cytotoxic IC50 measured after 48 hrs relative to control
[22] = Inhibition of RTK/PI3K/AKT/mTOR signaling in human U87 cells assessed as down regulation of BCL6 gene expression at cytotoxic IC50 measured after 48 hrs relative to control
[23] = Inhibition of RTK/PI3K/AKT/mTOR signaling in human U87 cells assessed as up regulation of integrin subunit beta 5 gene expression at cytotoxic IC50 measured after 48 hrs relative to control
[24] = Inhibition of RTK/PI3K/AKT/mTOR signaling in human U87 cells assessed as down regulation of ATP6V1B2 gene expression at cytotoxic IC50 measured after 48 hrs relative to control
[25] = Inhibition of RTK/PI3K/AKT/mTOR signaling in human U87 cells assessed as up regulation of LGALS3BP gene expression at cytotoxic IC50 measured after 48 hrs relative to control
[26] = Inhibition of RTK/PI3K/AKT/mTOR signaling in human U87 cells assessed as down regulation of ENC1 gene expression at cytotoxic IC50 measured after 48 hrs relative to control
[27] = Inhibition of RTK/PI3K/AKT/mTOR signaling in human U87 cells assessed as up regulation of SLC38A5 gene expression at cytotoxic IC50 measured after 48 hrs relative to control
[28] = Inhibition of RTK/PI3K/AKT/mTOR signaling in human U87 cells assessed as up regulation of synaptotagmin like 1 gene expression at cytotoxic IC50 measured after 48 hrs relative to control
[29] = Inhibition of RTK/PI3K/AKT/mTOR signaling in human U87 cells assessed as down regulation of C14orf166 gene expression at cytotoxic IC50 measured after 48 hrs relative to control
[30] = Inhibition of RTK/PI3K/AKT/mTOR signaling in human U87 cells assessed as down regulation of DHX29 gene expression at cytotoxic IC50 measured after 48 hrs relative to control
[31] = Inhibition of RTK/PI3K/AKT/mTOR signaling in human U87 cells assessed as up regulation of ABCA12 gene expression at cytotoxic IC50 measured after 48 hrs relative to control
[32] = Inhibition of RTK/PI3K/AKT/mTOR signaling in human U87 cells assessed as up regulation of transducer of ERBB2, 1 gene expression at cytotoxic IC50 measured after 48 hrs relative to control

## CC(=O)C(=NNc1ccccc1C#N)C(C)=O
[1]
  log2FC: -0.756
[2]
  log2FC: 0.898
[3]
  log2FC: -0.67
[4]
  log2FC: -1.21
[5]
  log2FC: 0.911
[6]
  log2FC: 0.77
[7]
  log2FC: 0.835
[8]
  log2FC: 0.72
[9]
  log2FC: 2.38
[10]
  log2FC: -0.744
[11]
  log2FC: 1.01
[12]
  log2FC: 0.963
[13]
  log2FC: -0.74
[14]
  log2FC: -4.78
[15]
  log2FC: -1.37
[16]
  log2FC: -1.14
[17]
  log2FC: -0.693
[18]
  log2FC: -2.32
[19]
  log2FC: 0.457
[20]
  log2FC: -0.552
[21]
  log2FC: 1.56
[22]
  log2FC: -0.748
[23]
  log2FC: 0.831
[24]
  log2FC: -1.1
[25]
  log2FC: 0.604
[26]
  log2FC: -0.748
[27]
  log2FC: 2.56
[28]
  log2FC: 0.945
[29]
  log2FC: -0.409
[30]
  log2FC: -0.878
[31]
  log2FC: 2.99
[32]
  log2FC: 0.989

— ChEMBL document CHEMBL4316593 (Eur J Med Chem, 2019)
